## Library screen at single concentrations

Chains of the proteins cited; added tags and fusions are not shown. Residues count along the entry.
UniProt Q8IDJ8, 1-583: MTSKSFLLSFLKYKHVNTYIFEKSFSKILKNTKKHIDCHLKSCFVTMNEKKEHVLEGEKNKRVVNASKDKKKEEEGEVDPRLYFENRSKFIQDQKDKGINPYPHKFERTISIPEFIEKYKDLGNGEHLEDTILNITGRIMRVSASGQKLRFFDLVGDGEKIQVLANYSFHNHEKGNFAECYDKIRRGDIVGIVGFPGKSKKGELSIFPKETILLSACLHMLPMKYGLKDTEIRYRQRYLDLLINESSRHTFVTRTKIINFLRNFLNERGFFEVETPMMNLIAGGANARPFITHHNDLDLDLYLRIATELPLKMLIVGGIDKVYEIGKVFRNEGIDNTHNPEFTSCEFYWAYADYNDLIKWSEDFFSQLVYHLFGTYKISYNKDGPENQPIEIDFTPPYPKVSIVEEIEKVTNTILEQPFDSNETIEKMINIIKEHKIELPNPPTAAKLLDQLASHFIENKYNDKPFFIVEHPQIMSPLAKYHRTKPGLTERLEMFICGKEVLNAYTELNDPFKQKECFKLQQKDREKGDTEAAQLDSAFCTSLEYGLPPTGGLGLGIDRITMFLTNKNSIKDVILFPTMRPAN
UniProt P9WFT3, whole entry: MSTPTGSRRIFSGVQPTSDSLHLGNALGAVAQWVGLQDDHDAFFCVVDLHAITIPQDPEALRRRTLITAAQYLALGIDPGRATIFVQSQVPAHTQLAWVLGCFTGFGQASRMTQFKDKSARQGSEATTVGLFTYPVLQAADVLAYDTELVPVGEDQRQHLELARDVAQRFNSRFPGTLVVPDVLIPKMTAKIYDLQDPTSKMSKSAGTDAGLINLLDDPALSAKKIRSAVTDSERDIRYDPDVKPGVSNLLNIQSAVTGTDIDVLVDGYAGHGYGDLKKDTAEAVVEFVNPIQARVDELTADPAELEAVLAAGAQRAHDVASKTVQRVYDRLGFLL

PfKRS1: 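Lysine-tRNA ligase, Plasmodium falciparum 3D7 (UniProt Q8IDJ8). Enzyme assay of the cytosolic lysyl-tRNA synthetase in 384-well plates, read by luminescence. Compounds at 30 µM. Direction is inferred from only a few compounds that gave an IC50; most scored high, so higher reads as stronger inhibition. Size under these conditions: about 69,000 compounds, about 49 of them at 50% or above in at least one test.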
MtTrpRS: 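Enzyme assay of tryptophanyl-tRNA synthetase; the read-out is not stated. Target: Tryptophan-tRNA ligase, Mycobacterium tuberculosis (UniProt P9WFT3). Compounds at 10 µM. Higher most likely means stronger inhibition; the record gives no direction and few retests gave an IC50. Size under these conditions: about 65,000 compounds, about 64 of them at 50% or above in at least one test.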

The filed quantity is “Percent Effect” (%). The controls that fix the scale are not given in the record; negative values are as filed. The compounds are a random part of those screened.

{"smiles": "CCCc1cc(CN(C)C2CSCCSC2)n[nH]1", "PfKRS1": 2.474, "MtTrpRS": 3.311}
{"smiles": "CNS(=O)(=O)CC(=O)NC(C)Cc1cccc(Cl)c1", "stereo": "centres undefined", "PfKRS1": -0.9349, "MtTrpRS": -3.549}
{"smiles": "Cc1noc(C(C)C)c1C(=O)NCCCOC(C)C", "PfKRS1": -1.122, "MtTrpRS": 2.715}
{"smiles": "CC(C)N1CCC(Cc2cncc(-c3ccccc3C(=O)O)n2)CC1", "PfKRS1": 1.347, "MtTrpRS": 4.934}
{"smiles": "O=C(COc1ccc(-n2cccn2)nn1)NC1CCCCC1", "PfKRS1": 9.182, "MtTrpRS": -2.055}
{"smiles": "Cc1ccc(CN2CC[C@]3(C[C@H](OCc4ccccn4)CO3)C2)o1", "PfKRS1": 0.5206, "MtTrpRS": 4.149}
{"smiles": "Cc1cc(C(=O)N(Cc2c(C)nn(C)c2C)C(C)C)nc(C)n1", "PfKRS1": 5.447, "MtTrpRS": 10.69}
{"smiles": "Cc1ccc(C2COCCN2C(=O)c2ccc(N(C)C)cc2)o1", "stereo": "centres undefined", "PfKRS1": -0.3115, "MtTrpRS": -0.8881}
{"smiles": "O=C(O)c1ccnc(-c2ccnc(COc3cccc(F)c3)n2)c1", "PfKRS1": -2.398, "MtTrpRS": 1.354}
{"smiles": "O=C(CCN1CCOCC1)Nc1cccc(CNCc2cccs2)c1", "PfKRS1": 2.594, "MtTrpRS": -1.329}
{"smiles": "Cn1cnn(CC(=O)NCc2ccccc2F)c1=O", "PfKRS1": 2.591, "MtTrpRS": 3.116}
{"smiles": "O=C(Cc1cccs1)NCCNc1nccc(C(F)(F)F)n1", "PfKRS1": 4.188, "MtTrpRS": -6.367}
{"smiles": "CN1CC=C(c2noc(CCC(=O)N3CCc4ccccc43)n2)CC1", "PfKRS1": 3.248, "MtTrpRS": 0.3408}
{"smiles": "COCCS(=O)(=O)NC(C)c1ccc(-n2nc(C)cc2C)cc1", "stereo": "centres undefined", "PfKRS1": 5.38, "MtTrpRS": -1.816}
{"smiles": "CN(C)C(=O)C1(C)CN(Cc2cn(C)c3ccccc23)CCO1", "stereo": "centres undefined", "PfKRS1": -1.162, "MtTrpRS": 0.06793}
{"smiles": "Cc1nn(C)c(C)c1CCC(=O)N1CC(c2cccnc2)C1", "PfKRS1": 8.677, "MtTrpRS": 1.338}
{"smiles": "Cc1cc(C)cc(CNCCS(=O)(=O)N2CCOCC2)c1", "PfKRS1": -0.6901, "MtTrpRS": 0.5482}
{"smiles": "Cc1ccc(F)c(NS(=O)(=O)c2cc3c(c(C(=O)O)c2)OCCO3)c1", "PfKRS1": 1.6, "MtTrpRS": -0.9538}
{"smiles": "CC(C)N1CCN2C(=O)N(C3CCCCC3)C[C@H]2C1", "PfKRS1": 6.588, "MtTrpRS": 0.3814}
{"smiles": "CN1CCOC(CNCc2coc(-c3cccc(Cl)c3)n2)C1", "stereo": "centres undefined", "PfKRS1": -1.151, "MtTrpRS": -3.488}
{"smiles": "CC(C)Cc1noc(CN(C)c2cc(C(C)C)nc3ccnn23)n1", "PfKRS1": -4.327, "MtTrpRS": 4.509}
{"smiles": "Cc1cnccc1CN(C)C(=O)c1cccc(CCC(C)(C)O)c1", "PfKRS1": 3.337, "MtTrpRS": -5.578}
{"smiles": "Cc1cnn(CC2CCCN2C(=O)CCc2c(C)noc2Cl)c1", "stereo": "centres undefined", "PfKRS1": -2.38, "MtTrpRS": -3.496}
{"smiles": "Cc1ccc(N2CCCc3sc(C(=O)NCc4ccncc4)nc32)nn1", "PfKRS1": 1.288, "MtTrpRS": 1.907}
{"smiles": "O=C(O)CNc1cc(-c2cc(C(=O)NC3CC3)ccn2)c2cc[nH]c2n1", "PfKRS1": 6.464, "MtTrpRS": -2.596}
{"smiles": "CC(C)c1nc(S(=O)(=O)Nc2ccnn2C2CCCC2)c[nH]1", "PfKRS1": -1.81, "MtTrpRS": 2.855}
{"smiles": "CC1CCCN(C(=O)CCNS(=O)(=O)c2cccnc2)C1", "stereo": "centres undefined", "PfKRS1": 2.116, "MtTrpRS": 0.3749}
{"smiles": "N#Cc1ncn(CCS(=O)(=O)c2ccc(Br)cc2)n1", "PfKRS1": 5.682, "MtTrpRS": 9.268}
{"smiles": "O=C(C1CC1)N1CCN(C(=O)CSc2ccccn2)[C@H]2CS(=O)(=O)C[C@H]21", "PfKRS1": 2.133, "MtTrpRS": 2.166}
{"smiles": "CCCS(=O)(=O)N1C[C@@H]2COC[C@@H](Cc3nc(C)no3)[C@@H]2C1", "PfKRS1": 0.6714, "MtTrpRS": -1.622}

The first 2 entries again:

- CCCc1cc(CN(C)C2CSCCSC2)n[nH]1 : PfKRS1: 2.474%; MtTrpRS: 3.311%
- CNS(=O)(=O)CC(=O)NC(C)Cc1cccc(Cl)c1 (centres undefined) : PfKRS1: -0.9349%; MtTrpRS: -3.549%

The values are deposited in ChEMBL (CHEMBL3988442, “University of Dundee, Small-Polar-MMV Screening Library” (2021)).